PubChem BioAssay AID1347076 (National Center for Advancing Translational Sciences (NCATS), 2019)
Among all 400,000 compounds or so, about 13,000 (3.2%) were called active. The inconclusive results got no clear call from the source; some entries with a clear call stand among them for comparison. Calls follow the shape of the dose curve; as a rule, active = well fitted cell-killing curve with a large enough effect; inconclusive = small, poorly fitted or top-dose-only effect, or effect the other way; inactive = flat fitted curve, though single readings scatter. Where the call is inconclusive, the potency comes from a doubtful curve fit.

Experiment: qHTS assay for MDR1-selective chemotherapeutics: Primary screen using the drug-selected MDR subline cells KB-V1; also: nearly all actives have a fitted effect of over 60% in size
Settings: KB-V1 MDR cells viability, CellTiter-Glo, 72 h; activity change, negative = cytotoxicity: at 46.1 µM (top of the series)
Procedure, shortened: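 Compound-treated KB-V1 multidrug-resistant cells, 72 h, 37 degrees C; viability by CellTiter-Glo. Fitted qHTS curves give the values.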
% is scaled to controls: 0 for no effect and ±100 for the full control effect; potency is read from the fitted curve at half-maximal effect.

SMILES	Potency	activity change, negative = cytotoxicity
CCOc1ccc(CCN2C(=S)N([C@@H](Cc3ccc(O)cc3)CN3CCC[C@@H]3CN3C(=S)NC[C@@H]3CC(C)C)C[C@@H]2CC(C)C)cc1	inconclusive: 20.6 µM [cytotoxic, single point]	–
CN1CCCCC1CCN1c2ccccc2Sc2ccc(S(C)=O)cc21 (configuration not stated)	inconclusive: 14.6 µM [cytotoxic, partial curve]	–
COc1ccccc1OCCNC(=O)CCC(=O)N1CCOCC1	inconclusive: 20.6 µM [cytotoxic, single point]	–
O=C(/C=C/c1cccs1)Nc1cccnc1	inconclusive: 20.6 µM [cytotoxic, single point]	–
O=C(COc1ccc(Cl)cc1)NCC(c1ccco1)S(=O)(=O)c1ccc(F)cc1 (configuration not stated)	–	inactive: 1.47%
CCOC(=O)c1cc(S(=O)(=O)N2CCc3ccccc32)cn1C	–	inactive: -19.6%
CC(/C=C/c1ccccc1)=N\Nc1nc(-c2ccccc2)cs1	inconclusive: 25.9 µM [cytotoxic, single point]	–
CCOCCCNC(=O)C(=O)Nc1c2c(nn1-c1ccccc1)CSC2	–	inactive: -11.7%
COc1c2ccccc2c(OC)c2ccccc12	inconclusive: 18.4 µM [rising, single point]	–
Cc1onc(-c2ccccc2)c1C(=O)O/N=C(\N)c1ccc([N+](=O)[O-])o1	inconclusive: 14.6 µM [cytotoxic, partial curve, poor fit]	–
CN1C(=O)C(O)(CC(=O)c2cccc(-n3cccc3)c2)c2ccccc21 (configuration not stated)	–	inactive: 0.66%
CSc1ncccc1C(=O)N1CCCC(N2CCN(c3ccccc3F)CC2)C1 (configuration not stated)	inconclusive: 0.0058 µM [rising, full curve]	–
O=C(COc1ccc(Br)cc1)N/N=C1/SCC(=O)N1Cc1ccco1	inconclusive: 29.1 µM [cytotoxic, partial curve, poor fit]	–
Cc1ccccc1C(=O)N/N=C1/SCC(=O)N1Cc1ccccc1	inconclusive: 23.1 µM [cytotoxic, partial curve, poor fit]	–
Cc1ccccc1OCC(=O)Nc1ccccc1N1CCCCC1	active: 14.6 µM	–
CCOP(=O)(OCC)c1nc(-c2ccc(Cl)cc2Cl)oc1N1CCCCC1	inconclusive: 8.2 µM [cytotoxic, partial curve]	–
Cc1ccc2cc(C)c(SCC(=O)NCc3ccco3)nc2c1	inconclusive: 20.6 µM [cytotoxic, single point]	–
O=S(=O)(NCC1CCN(c2ccc(S(=O)(=O)N3CCOCC3)cc2)CC1)c1ccccc1	inconclusive: 18.4 µM [cytotoxic, partial curve]	–
Cc1ccc(-c2nc(NC(=O)c3nn(C)cc3[N+](=O)[O-])sc2C)cc1	inconclusive: 4.61 µM [cytotoxic, full curve, poor fit]	–
Cc1nc([N+](=O)[O-])cn1Cc1cccc([N+](=O)[O-])c1	inconclusive: 29.1 µM [rising, single point]	–
O=[N+]([O-])c1ccc2c(c1)CO[C@@]21O[C@H](CCO)C[C@H](O)[C@H]1O	–	inactive: 0%
COc1ccc(S(=O)(=O)NC(C)C(=O)Nc2cccc([N+](=O)[O-])c2)cc1 (configuration not stated)	inconclusive: 16.4 µM [cytotoxic, single point]	–
CCN(CC)S(=O)(=O)c1ccc(-c2nnc(SCc3nnc(-c4ccc(C)cc4)o3)o2)cc1	inconclusive: 2.59 µM [cytotoxic, full curve]	–
CC1=C(C(=O)N(C)C)CC(CC(=O)NCCCN(C)C)C(=O)N1Cc1ccccc1 (configuration not stated)	–	inactive: -6.64%

Exported with bars between the fields: entries from further up
SMILES | Potency | activity change, negative = cytotoxicity
CN1C(=O)C(O)(CC(=O)c2cccc(-n3cccc3)c2)c2ccccc21 (configuration not stated) | – | inactive: 0.66%
CSc1ncccc1C(=O)N1CCCC(N2CCN(c3ccccc3F)CC2)C1 (configuration not stated) | inconclusive: 0.0058 µM [rising, full curve] | –
O=C(COc1ccc(Br)cc1)N/N=C1/SCC(=O)N1Cc1ccco1 | inconclusive: 29.1 µM [cytotoxic, partial curve, poor fit] | –

Additional entries follow.

SMILES	Potency	activity change, negative = cytotoxicity
Nc1c2c(nc3cccc(Cl)c13)N(c1ccccc1)CC2	–	inactive: -1.31%
Nc1c(-c2ccc3c(c2)OCCO3)oc2ccccc2c1=O	inconclusive: 25.9 µM [cytotoxic, single point]	–
COc1ccccc1C(=O)N1CCN(C(=O)[C@H]2O[C@@H](n3ccc(N)nc3=O)[C@H](O)[C@@H]2O)CC1	–	inactive: 13.2%
Cc1cc(-c2ccc(C)c(S(=O)(=O)N3CCN(c4ccc(F)cc4)CC3)c2)on1	–	inactive: -20.3%
Cn1c(SCC(=O)NC(=O)NCc2ccco2)nnc1C(F)(F)F	inconclusive: 29.1 µM [rising, single point]	–
CCn1c(C)nc2cc(S(=O)(=O)C(F)(F)C(F)C(F)(F)F)ccc21 (configuration not stated)	–	inactive: 5.47%
CC(C)NCC(=O)C12CC3CC(CC(C3)C1)C2	–	inactive: 9.06%
COCCCn1c(SCC(=O)Nc2ccc(F)cc2)nc2c(sc3ccccc32)c1=O	–	inactive: 0%
Cc1cc(N2C(=O)C(O)=C(C(=O)c3ccco3)C2c2ccc(Cl)cc2)no1 (configuration not stated)	–	inactive: -13.4%
Cc1cccc(NC(=O)C2CCCN(S(=O)(=O)c3ccc4c(c3)CCCC(=O)N4)C2)c1 (configuration not stated)	–	inactive: -6.95%
COc1ccc(N=C2SC(CC(=O)Nc3cccc(Cl)c3)C(=O)N2Cc2ccco2)cc1 (configuration not stated)	inconclusive: 29.1 µM [cytotoxic, single point]	–
Cc1nn(C)c(C)c1/C=N/N=C1\CCC2C3CCc4cc(O)ccc4C3CCC12C (configuration not stated)	–	inactive: -4.27%
Brc1ccc(-c2cn3c(n2)CCc2ccc4cccnc4c2-3)cc1	active: 16.4 µM	–
O=C(Cn1nc(CNc2ccc(Cl)cc2)[n+]2c1CCCCC2)c1ccccc1	inconclusive: 29.1 µM [rising, single point]	–
O=c1[nH]n2c(=O)c3c([nH]c2c1N=Nc1cccc(C(F)(F)F)c1)CCCC3	inconclusive: 23.1 µM [cytotoxic, single point]	–
CCCCNC(=O)C(NC(=O)c1ccccc1)C(=O)c1ccccc1 (configuration not stated)	inconclusive: 10.3 µM [cytotoxic, partial curve]	–
CCCOC(=O)c1ccc(NC(=O)c2c(Cl)ccc(Cl)c2OC)cc1	inconclusive: 25.9 µM [cytotoxic, single point]	–
CCOC(=O)c1ccc(NC(=O)c2nc[nH]c2C(=O)NC[C@H](C)O)cc1	–	inactive: -8.74%
NC(=O)c1ccccc1NC(=O)C1CCCO1 (configuration not stated)	–	inconclusive: -17.4%
O=C1c2ccccc2C(c2nnnn2Cc2ccccc2)N1Cc1ccco1 (configuration not stated)	inconclusive: 6.51 µM [cytotoxic, partial curve]	–
Cc1cc(C)c(NC(=O)CSC2=Nc3ccccc3C3=NC(CC(=O)NCc4cccs4)C(=O)N23)c(C)c1 (configuration not stated)	–	inactive: 17%
CCCC1NC(=O)c2cccnc2-n2c1nc1ccc(Br)cc1c2=O (configuration not stated)	–	inactive: -16.6%
Cc1cc(=O)c2cc(C(=O)Nc3ccc(F)cc3)ccc2[nH]1	–	inactive: 5.74%
COc1ccc(CCC(=O)N2CC(C)OC(C)C2)cc1 (configuration not stated)	inconclusive: 29.1 µM [cytotoxic, single point]	–

SMILES	Potency	activity change, negative = cytotoxicity
Cc1nn(-c2ccccc2)c(Cl)c1/C=N/NC(=O)c1ccccc1NS(=O)(=O)c1cccs1	inconclusive: 20.6 µM [cytotoxic, partial curve]	–
CC(=O)c1cnc2ncnn2c1C	inconclusive: 6.51 µM [rising, partial curve, poor fit]	–
Cc1ccc(N2CC(C(=O)OCC(=O)Nc3cccc(Cl)c3C)CC2=O)cc1 (configuration not stated)	inconclusive: 16.4 µM [rising, partial curve, poor fit]	–
CC(=O)Oc1ccc2nc(-c3ccco3)oc(=O)c2c1	–	inactive: 14.1%
CCOc1ccccc1CN1CCN(Cc2nc3c(s2)CCCC3)CC1CCO (configuration not stated)	inconclusive: 29.1 µM [cytotoxic, single point]	–
COc1ccc(S(=O)(=O)Nc2cc(OC)c(NC(=O)c3ccco3)cc2OC)cc1	–	inactive: -10%
O=C(CN1C(=O)c2ccccc2C1=O)NC1CCCCC1	–	inactive: 3.24%
Cc1ccc(C=Nc2ccccc2C#N)s1	inconclusive: 6.51 µM [rising, partial curve, poor fit]	–
CC1CCCCN1C(=O)CSc1nc2ccsc2c(=O)n1Cc1ccccn1 (configuration not stated)	active: 18.4 µM	–
Cc1cccn2c(=O)c(C(=O)NC(C)c3ccccc3)c(O)nc12 (configuration not stated)	inconclusive: 29.1 µM [cytotoxic, single point]	–
CCCCOc1ccc(S(=O)(=O)Nc2ccc(NC(C)=O)cc2)cc1	active: 20.6 µM	–
CN(C)S(=O)(=O)c1ccc(C(=O)Nc2ccccc2[N+](=O)[O-])cc1	inconclusive: 10.3 µM [cytotoxic, partial curve, poor fit]	–
Clc1ccc(CSc2ncn(-c3ccccc3)n2)cc1	active: 20.6 µM	–
CCN(CC)Cc1c(C(=O)N/N=C(\C)c2ccncc2)nnn1-c1nonc1N	–	inconclusive: 31%
C[C@@H]1CN([C@@H](C)CO)C(=O)c2cc(NC(=O)CCC(F)(F)F)ccc2O[C@H]1CN(C)Cc1ccc(Cl)c(Cl)c1	–	inactive: -0.0872%
COc1ccc(-n2c(-c3ccc(Cl)cc3)n[nH]c2=S)c(OC)c1	–	inactive: 4.94%
CC(=O)Nc1nnc(SCc2ccccc2F)s1	inconclusive: 23.1 µM [cytotoxic, single point]	–
COc1ccc(OC)c(C2C3=C(COC3=O)Nc3cc4c(cc32)OCO4)c1 (configuration not stated)	active: 1.16 µM	–
Cc1ccc(NC(=O)COC(=O)CSCC(=O)Nc2cc(C)on2)c(C)c1	inconclusive: 0.461 µM [rising, full curve, poor fit]	–
COc1ccccc1CCC(=O)Nc1ccc2c(c1)c(=O)n(C)n2Cc1ccc(F)cc1	inconclusive: 29.1 µM [cytotoxic, single point]	–
CN(C)CCCNC(=S)N(Cc1cccs1)Cc1cc2cc3c(cc2[nH]c1=O)OCCO3	inconclusive: 29.1 µM [rising, single point]	–
CN1CCCN(S(=O)(=O)c2ccc(O)c(C(=O)O)c2)CC1	inconclusive: 29.1 µM [rising, single point]	–
O=C(N/N=C\c1ccc(Br)cc1)c1ccc(Cn2cccn2)o1	active: 11.6 µM	–
Cc1cccc(C(=O)N2CCc3cc(-c4csc(NC(=O)CN5CCCC5)n4)ccc32)c1	inconclusive: 7.31 µM [cytotoxic, partial curve]	–
